Where a chain is given by its changes, count along the chain named. These are yes or no findings as the source states them, for the method shown. For some of these results: A result given as binding can be weak or reduced; the word gives no strength. Tags and fused reporters may be left off the sequences shown. For some of these results: Binding seen in cells or lysates may run through a third protein.
Experiments:
[1] = target: T1, GST-ATG8A (Arabidopsis thaliana) (UniProt Q8LEM4); test: pull-down
T1 sequence: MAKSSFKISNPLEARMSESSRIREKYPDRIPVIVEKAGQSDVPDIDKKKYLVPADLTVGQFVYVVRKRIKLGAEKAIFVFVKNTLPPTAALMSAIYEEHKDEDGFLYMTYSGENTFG

[2] = target: T2, GST-ATG8^LDS (Arabidopsis thaliana) (UniProt Q8LEM4); test: pull-down
T2 sequence: T1 sequence with Y50A, L51A

[3] = target: T1, GST-ATG8A (Arabidopsis thaliana); test: microscopy-based on-bead protein-protein interaction assay

| binding [1] | binding [2] | binding [3] | Substance |
| --- | --- | --- | --- |
| binds | no binding | – | MBP-AtC53 (Arabidopsis thaliana) |
| binds | – | – | PfC53 (Piromyces finnis) |
| – | – | binds | mCherry tagged AtC53 (Arabidopsis thaliana) |
